Earlier results in publication PMC4796946 (Nature, 2015).

Conditions: cited from earlier work

O=C1CN=C(c2ccccc2)c2cc(Cl)ccc2N1 [desmethyldiazepam]
concentration in plasma during treatment: micromolar
